Data from patent publication US7381728B2, “Piperazine derivatives useful for the treatment of gastrointestinal disorders” (Glaxo Group Limited, priority 2004, dated 2008).
Some entries share one result that the patent states for a list of compounds.

Sequences of proteins named here, by UniProt entry; tags and fusion partners are left off.
UniProt Q92847, whole entry: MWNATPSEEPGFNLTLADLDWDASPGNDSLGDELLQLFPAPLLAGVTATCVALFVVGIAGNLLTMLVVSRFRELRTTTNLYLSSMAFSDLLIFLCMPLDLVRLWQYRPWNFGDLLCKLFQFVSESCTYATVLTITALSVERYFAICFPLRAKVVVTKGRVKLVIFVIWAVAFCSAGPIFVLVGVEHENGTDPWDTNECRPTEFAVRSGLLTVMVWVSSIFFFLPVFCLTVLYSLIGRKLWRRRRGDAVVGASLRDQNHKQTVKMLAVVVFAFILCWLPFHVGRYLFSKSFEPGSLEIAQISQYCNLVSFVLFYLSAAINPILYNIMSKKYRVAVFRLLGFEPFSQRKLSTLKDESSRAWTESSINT

Assays:
Ghrelin Receptor GHS-R [1] = target: T1, Ghrelin Receptor GHS-R (Homo sapiens, UniProt Q92847); test: GHSR Agonist BACMAM FLIPR Assay; format: cell-based; set-up: The open reading frame of GHS-R was transferred from pCDN into pFastBacmam vector; expressed in transfected cells; host or cells: HEK MSR II cells or U2OS cells transduced with human GHSR BacMam virus; details: HEK MSR II or U2OS cells transduced with human GHSR BACMAM virus; Fluo 4 calcium fluorescence
Ghrelin Receptor GHS-R [2] = target: T1, Ghrelin Receptor GHS-R; test: GHS-R GTPγS functional agonist assay; format: biochemical; set-up: The open reading frame of GHS-R was transferred from pCDN into pFastBacmam vector; expressed in transfected cells; host or cells: Membranes of HEK293T cells (Lipofectamine, pCDNA3) or of HEK293F cells (BacMam co-transduction with rat Gαo); details: membranes of HEK293 cells transiently expressing GHS-R (protocols I and II); [35S]GTPγS SPA; read-out: activity in the GHS-R GTPγS functional agonist assays

Row | SMILES | EC50 (Ghrelin Receptor GHS-R [1]) | EC50 (Ghrelin Receptor GHS-R [2])
1 | COc1ccc(NS(=O)(=O)c2ccc(-c3cccc(F)c3F)s2)cc1N1C[C@@H](C)N[C@@H](C)C1 [Example 224, 5-(2,3-Difluorophenyl)-N-[3-(cis-3,5-dimethyl-1-piperazinyl)-4-(methyloxy)phenyl]-2-thiophenesulfonamide] | < 1000 nM | < 1000 nM
2 | COc1ccc(N2C[C@@H](C)N[C@@H](C)C2)cc1NS(=O)(=O)c1cc(Br)ccc1OC [Example 77, 5-Bromo-N-[5-(cis-3,5-dimethyl-1-piperazinyl)-2-(methyloxy)phenyl]-2-(methyloxy)benzenesulfonamide] | < 1000 nM | < 1000 nM
3 | COc1ccc(NS(=O)(=O)c2ccc(-c3cccc(C)c3)s2)cc1N1C[C@@H](C)N[C@@H](C)C1 [Example 223, N-[3-(cis-3,5-Dimethyl-1-piperazinyl)-4-(methyloxy)phenyl]-5-(3-methylphenyl)-2-thiophenesulfonamide] | < 1000 nM | < 1000 nM
4 | C[C@@H]1CN(c2cccc(NS(=O)(=O)c3cccc(Cl)c3Cl)c2)C[C@H](C)N1 [Example 66, 2,3-Dichloro-N-[3-(cis-3,5-dimethyl-1-piperazinyl)phenyl]benzenesulfonamide] | < 1000 nM | < 1000 nM
5 | COc1ccc(N2C[C@@H](C)N[C@@H](C)C2)cc1NS(=O)(=O)c1ccc(-c2ccc(F)c(Cl)c2)s1 [Example 201, 5-(3-Chloro-4-fluorophenyl)-N-[5-(cis-3,5-dimethyl-1-piperazinyl)-2-(methyloxy)phenyl]-2-thiophenesulfonamide] | < 1000 nM | < 1000 nM
6 | COc1ccc(NS(=O)(=O)c2ccc(Oc3ccccc3)cc2)cc1N1C[C@@H](C)N[C@@H](C)C1 [Example 8, N-[3-(cis-3,5-Dimethyl-1-piperazinyl)-4-(methyloxy)phenyl]-4-(phenyloxy)benzenesulfonamide] | < 1000 nM | < 1000 nM
7 | COc1ccc(N2C[C@@H](C)N[C@@H](C)C2)cc1NS(=O)(=O)c1cc2cc(Cl)ccc2s1 [Example 55, 5-Chloro-N-[5-(cis-3,5-dimethyl-1-piperazinyl)-2-(methyloxy)phenyl]-1-benzothiophene-2-sulfonamide] | < 1000 nM | < 1000 nM
8 | Cc1ccc(-c2ccc(S(=O)(=O)Nc3cc(N4C[C@@H](C)N[C@@H](C)C4)ccc3O)cc2F)o1 [Example 315, N-[5-(cis-3,5-Dimethyl-1-piperazinyl)-2-hydroxyphenyl]-3-fluoro-4-(5-methyl-2-furanyl)benzenesulfonamide] | < 1000 nM | < 1000 nM
9 | COc1ccc(N2CCN[C@@H](C)C2)cc1NS(=O)(=O)c1ccc(-c2cccs2)cc1 [Example 311, N-{2-(Methyloxy)-5-[(3S)-3-methyl-1-piperazinyl]phenyl}-4-(2-thienyl)benzenesulfonamide] | < 1000 nM | < 1000 nM
10 | COc1ccc(N2C[C@@H](C)N[C@@H](C)C2)cc1NS(=O)(=O)c1ccc(-c2csc(C)c2)c(F)c1 [Example 301, N-[5-(cis-3,5-Dimethyl-1-piperazinyl)-2-(methyloxy)phenyl]-3-fluoro-4-(5-methyl-3-thienyl)benzenesulfonamide] | < 1000 nM | < 1000 nM
11 | COc1ccc(NS(=O)(=O)c2ccc(-c3cc(C)cs3)s2)cc1N1C[C@@H](C)N[C@@H](C)C1 [Example 214, N-[3-(cis-3,5-Dimethyl-1-piperazinyl)-4-(methyloxy)phenyl]-4′-methyl-2,2′-bithiophene-5-sulfonamide] | < 1000 nM | < 1000 nM
12 | COc1ccc(N2C[C@@H](C)N[C@@H](C)C2)cc1NS(=O)(=O)c1ccc(-c2ccoc2)c(F)c1 [Example 116, N-[5-(cis-3,5-Dimethyl-1-piperazinyl)-2-(methyloxy)phenyl]-3-fluoro-4-(3-furanyl)benzenesulfonamide] | < 1000 nM | < 1000 nM
13 | COc1ccc(N2C[C@@H](C)N[C@@H](C)C2)cc1NS(=O)(=O)c1ccc(-c2csc(C)c2)cc1Cl [Example 304, 2-Chloro-N-[5-(cis-3,5-dimethyl-1-piperazinyl)-2-(methyloxy)phenyl]-4-(5-methyl-3-thienyl)benzenesulfonamide] | < 1000 nM | < 1000 nM
14 | COc1ccc(N2C[C@@H](C)N[C@@H](C)C2)cc1NS(=O)(=O)c1ccc(-c2ccccc2F)cc1 [Example 186, N-[5-(cis-3,5-Dimethyl-1-piperazinyl)-2-(methyloxy)phenyl]-2′-fluoro-4-biphenylsulfonamide] | < 1000 nM | < 1000 nM
15 | C[C@@H]1CN(c2cccc(NS(=O)(=O)c3ccc(-c4cnco4)cc3)c2)C[C@H](C)N1 [Example 68, N-[3-(cis-3,5-dimethyl-1-piperazinyl)phenyl]-4-(1,3-oxazol-5-yl)benzenesulfonamide] | < 1000 nM | < 1000 nM
16 | Cc1csc(-c2ccc(S(=O)(=O)Nc3cc(N4C[C@@H](C)N[C@@H](C)C4)ccc3F)cc2)c1 [Example 265, N-[5-(cis-3,5-Dimethyl-1-piperazinyl)-2-fluorophenyl]-4-(4-methyl-2-thienyl)benzenesulfonamide] | < 1000 nM | < 1000 nM
17 | COc1ccc(N2C[C@@H](C)N[C@@H](C)C2)cc1NS(=O)(=O)c1ccc(-c2csc3ccccc23)s1 [Example 136, 5-(1-Benzothien-3-yl)-N-[5-(cis-3,5-dimethyl-1-piperazinyl)-2-(methyloxy)phenyl]-2-thiophenesulfonamide] | < 1000 nM | < 1000 nM
18 | Cc1ccc(N2C[C@@H](C)N[C@@H](C)C2)cc1NS(=O)(=O)c1ccc(-c2cccs2)cc1 [Example 173, N-[5-(cis-3,5-Dimethyl-1-piperazinyl)-2-methylphenyl]-4-(2-thienyl)benzenesulfonamide] | < 1000 nM | < 1000 nM
19 | COc1ccc(N2C[C@@H](C)N[C@@H](C)C2)cc1NS(=O)(=O)c1cc(F)c(-c2cc(C)cs2)cc1F [Example 289, N-[5-(cis-3,5-Dimethyl-1-piperazinyl)-2-(methyloxy)phenyl]-2,5-difluoro-4-(4-methyl-2-thienyl)benzenesulfonamide] | < 1000 nM | < 1000 nM
20 | COc1ccc(NS(=O)(=O)c2cccc(Cl)c2Cl)cc1N1C[C@@H](C)N[C@@H](C)C1 [Example 29, 2,3-Dichloro-N-[3-(cis-3,5-dimethyl-1-piperazinyl)-4-(methyloxy)phenyl]benzenesulfonamide] | < 1000 nM | < 1000 nM
21 | COc1ccc(Oc2cccc(S(=O)(=O)Nc3cc(N4C[C@@H](C)N[C@@H](C)C4)ccc3OC)c2)cc1 [Example 60, N-[5-(cis-3,5-Dimethyl-1-piperazinyl)-2-(methyloxy)phenyl]-3-{[4-(methyloxy)phenyl]oxy}benzenesulfonamide] | < 1000 nM | < 1000 nM
22 | COc1ccc(NS(=O)(=O)c2ccc(-c3cccc(F)c3F)cc2)cc1N1C[C@@H](C)N[C@@H](C)C1 [Example 152, N-[3-(cis-3,5-Dimethyl-1-piperazinyl)-4-(methyloxy)phenyl]-2′,3′-difluoro-4-biphenylsulfonamide] | < 1000 nM | < 1000 nM
23 | COc1ccc(NS(=O)(=O)c2ccc(-c3cccs3)cc2F)cc1N1C[C@@H](C)N[C@@H](C)C1 [Example 170, N-[3-(cis-3,5-Dimethyl-1-piperazinyl)-4-(methyloxy)phenyl]-2-fluoro-4-(2-thienyl)benzenesulfonamide] | < 1000 nM | < 1000 nM
